Source: patent US20260193222A1, “COMPOUND AND USE THEREOF IN TREATMENT OF TREG-RELATED DISEASES” (BENETHERA (SHAOXING) BIOTECHNOLOGY CO., LTD., priority 2022, published 2026)
For at least one compound, name, drawing or mass did not settle the structure.

Tested on: Tregs
Assay: Promotion of Treg proliferation (experiments not described)
Details: found by means of experiments, no details

Structure (SMILES): C=C(C)C1CCC(C)=CC1c1c(C)cc(O)cc1O (stereo not shown) [Compound O-1602]
- proliferation of Tregs / quantity of Tregs: effectively promote the proliferation of Tregs
